Reference: the supplement of paper PMC10849652
The other results are listed elsewhere or left out.

Sequences of proteins named here, by UniProt entry; tags and fusion partners are left off. A change or cut given only in a name is not applied to a line headed by its entry.
UniProt P34059: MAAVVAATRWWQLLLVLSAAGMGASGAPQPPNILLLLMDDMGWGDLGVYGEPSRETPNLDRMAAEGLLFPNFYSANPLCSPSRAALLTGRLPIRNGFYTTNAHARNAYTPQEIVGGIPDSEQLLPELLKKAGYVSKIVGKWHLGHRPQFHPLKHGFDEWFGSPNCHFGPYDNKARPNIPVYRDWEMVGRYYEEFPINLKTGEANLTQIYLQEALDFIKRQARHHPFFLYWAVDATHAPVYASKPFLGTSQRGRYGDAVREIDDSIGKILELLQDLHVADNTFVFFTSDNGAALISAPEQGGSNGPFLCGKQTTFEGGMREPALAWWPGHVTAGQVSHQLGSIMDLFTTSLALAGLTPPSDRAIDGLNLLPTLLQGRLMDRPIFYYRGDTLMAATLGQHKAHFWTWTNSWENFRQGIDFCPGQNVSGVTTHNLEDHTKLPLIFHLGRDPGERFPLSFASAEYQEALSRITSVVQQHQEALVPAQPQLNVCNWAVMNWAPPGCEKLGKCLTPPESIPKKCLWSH
UniProt P51116, whole entry, looked up: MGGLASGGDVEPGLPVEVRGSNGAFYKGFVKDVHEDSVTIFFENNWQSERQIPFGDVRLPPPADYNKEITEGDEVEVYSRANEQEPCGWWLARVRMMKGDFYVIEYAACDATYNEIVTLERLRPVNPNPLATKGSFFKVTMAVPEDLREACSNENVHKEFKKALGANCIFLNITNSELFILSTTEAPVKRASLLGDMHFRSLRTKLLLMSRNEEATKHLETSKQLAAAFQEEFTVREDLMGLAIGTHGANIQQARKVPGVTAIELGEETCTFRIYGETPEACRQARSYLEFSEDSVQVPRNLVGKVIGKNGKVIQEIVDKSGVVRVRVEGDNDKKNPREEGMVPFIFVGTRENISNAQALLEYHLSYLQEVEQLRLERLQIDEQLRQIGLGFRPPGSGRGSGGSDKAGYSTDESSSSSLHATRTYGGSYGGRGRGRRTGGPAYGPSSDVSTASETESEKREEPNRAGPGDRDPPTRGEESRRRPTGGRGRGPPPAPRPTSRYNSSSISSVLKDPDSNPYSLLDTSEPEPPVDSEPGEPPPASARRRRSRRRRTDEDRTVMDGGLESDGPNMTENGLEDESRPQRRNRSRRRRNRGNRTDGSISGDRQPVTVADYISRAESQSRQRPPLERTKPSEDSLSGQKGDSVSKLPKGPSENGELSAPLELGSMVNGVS
UniProt P16383: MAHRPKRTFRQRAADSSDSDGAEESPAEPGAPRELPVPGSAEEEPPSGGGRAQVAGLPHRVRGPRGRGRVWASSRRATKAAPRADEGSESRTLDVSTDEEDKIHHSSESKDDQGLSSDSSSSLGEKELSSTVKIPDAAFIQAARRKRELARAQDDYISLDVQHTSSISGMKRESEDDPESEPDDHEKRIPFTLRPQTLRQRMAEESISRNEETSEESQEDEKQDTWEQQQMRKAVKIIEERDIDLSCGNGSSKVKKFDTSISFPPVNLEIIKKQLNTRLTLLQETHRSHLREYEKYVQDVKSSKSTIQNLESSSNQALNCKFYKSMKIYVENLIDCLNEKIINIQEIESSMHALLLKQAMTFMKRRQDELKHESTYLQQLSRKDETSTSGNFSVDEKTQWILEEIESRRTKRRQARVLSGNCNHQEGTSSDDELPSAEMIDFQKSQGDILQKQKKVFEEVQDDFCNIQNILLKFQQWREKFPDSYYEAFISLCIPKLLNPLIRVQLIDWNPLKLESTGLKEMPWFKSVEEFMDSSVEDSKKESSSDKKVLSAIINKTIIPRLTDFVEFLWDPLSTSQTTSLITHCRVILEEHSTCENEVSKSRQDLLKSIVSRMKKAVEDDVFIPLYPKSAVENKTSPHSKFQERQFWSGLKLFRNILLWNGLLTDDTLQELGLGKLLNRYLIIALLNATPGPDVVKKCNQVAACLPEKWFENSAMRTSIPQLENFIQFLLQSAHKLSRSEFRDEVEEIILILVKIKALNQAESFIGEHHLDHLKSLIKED
UniProt P09958, whole entry, looked up: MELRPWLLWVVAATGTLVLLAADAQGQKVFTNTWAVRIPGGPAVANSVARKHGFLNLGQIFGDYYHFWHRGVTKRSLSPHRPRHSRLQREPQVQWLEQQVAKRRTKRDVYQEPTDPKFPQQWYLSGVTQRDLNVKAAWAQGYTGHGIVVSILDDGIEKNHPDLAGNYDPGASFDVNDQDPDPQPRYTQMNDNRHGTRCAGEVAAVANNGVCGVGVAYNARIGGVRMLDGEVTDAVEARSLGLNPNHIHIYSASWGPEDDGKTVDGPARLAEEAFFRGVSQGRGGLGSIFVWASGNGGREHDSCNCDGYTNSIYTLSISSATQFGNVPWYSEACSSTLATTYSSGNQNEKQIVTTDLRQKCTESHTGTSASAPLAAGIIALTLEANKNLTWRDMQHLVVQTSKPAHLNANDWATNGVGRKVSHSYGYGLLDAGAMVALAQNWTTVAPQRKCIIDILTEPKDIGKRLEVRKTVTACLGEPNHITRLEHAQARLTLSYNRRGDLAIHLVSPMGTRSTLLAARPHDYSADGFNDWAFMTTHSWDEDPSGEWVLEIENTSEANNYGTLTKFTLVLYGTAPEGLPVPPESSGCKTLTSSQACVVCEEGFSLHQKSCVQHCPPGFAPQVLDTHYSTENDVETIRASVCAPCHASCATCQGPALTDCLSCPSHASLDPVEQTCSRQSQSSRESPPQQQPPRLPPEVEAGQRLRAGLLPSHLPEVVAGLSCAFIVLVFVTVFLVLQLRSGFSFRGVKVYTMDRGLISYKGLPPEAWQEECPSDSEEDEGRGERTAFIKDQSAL
UniProt Q96AE4: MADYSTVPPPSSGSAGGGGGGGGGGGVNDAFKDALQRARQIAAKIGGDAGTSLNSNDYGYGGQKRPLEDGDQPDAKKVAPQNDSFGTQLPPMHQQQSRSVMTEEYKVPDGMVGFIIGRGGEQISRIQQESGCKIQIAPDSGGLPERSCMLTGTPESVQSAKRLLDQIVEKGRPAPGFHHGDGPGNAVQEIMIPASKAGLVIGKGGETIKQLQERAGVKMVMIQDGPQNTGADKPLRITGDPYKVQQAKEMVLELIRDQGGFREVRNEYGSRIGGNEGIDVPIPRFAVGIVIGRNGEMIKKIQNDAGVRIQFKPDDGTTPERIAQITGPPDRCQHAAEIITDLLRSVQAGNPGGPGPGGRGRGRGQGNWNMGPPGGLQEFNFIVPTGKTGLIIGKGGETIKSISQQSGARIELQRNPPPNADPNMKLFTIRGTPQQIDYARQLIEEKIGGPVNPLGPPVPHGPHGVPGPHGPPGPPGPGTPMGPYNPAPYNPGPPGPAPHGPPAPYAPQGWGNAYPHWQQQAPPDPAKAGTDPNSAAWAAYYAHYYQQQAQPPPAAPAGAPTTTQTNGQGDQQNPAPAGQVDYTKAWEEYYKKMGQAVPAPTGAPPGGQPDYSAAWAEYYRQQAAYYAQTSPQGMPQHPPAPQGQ
UniProt Q9UJY5: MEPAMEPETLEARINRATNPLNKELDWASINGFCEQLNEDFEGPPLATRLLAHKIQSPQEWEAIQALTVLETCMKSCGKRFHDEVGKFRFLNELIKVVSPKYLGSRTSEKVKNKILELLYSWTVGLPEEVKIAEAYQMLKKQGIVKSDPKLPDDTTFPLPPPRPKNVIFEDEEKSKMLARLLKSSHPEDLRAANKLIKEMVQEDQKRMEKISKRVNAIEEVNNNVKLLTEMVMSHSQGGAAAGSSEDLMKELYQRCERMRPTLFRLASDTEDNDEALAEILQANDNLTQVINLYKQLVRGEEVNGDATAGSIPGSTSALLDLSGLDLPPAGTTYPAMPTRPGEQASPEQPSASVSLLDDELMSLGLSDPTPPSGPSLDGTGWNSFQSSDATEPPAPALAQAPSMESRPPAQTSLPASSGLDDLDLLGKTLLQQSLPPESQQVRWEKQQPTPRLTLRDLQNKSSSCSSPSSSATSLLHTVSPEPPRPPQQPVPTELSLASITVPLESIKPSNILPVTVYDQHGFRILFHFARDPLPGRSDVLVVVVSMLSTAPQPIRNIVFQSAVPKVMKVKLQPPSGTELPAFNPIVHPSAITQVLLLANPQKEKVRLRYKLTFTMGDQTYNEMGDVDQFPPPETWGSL
UniProt Q13283, whole entry, looked up: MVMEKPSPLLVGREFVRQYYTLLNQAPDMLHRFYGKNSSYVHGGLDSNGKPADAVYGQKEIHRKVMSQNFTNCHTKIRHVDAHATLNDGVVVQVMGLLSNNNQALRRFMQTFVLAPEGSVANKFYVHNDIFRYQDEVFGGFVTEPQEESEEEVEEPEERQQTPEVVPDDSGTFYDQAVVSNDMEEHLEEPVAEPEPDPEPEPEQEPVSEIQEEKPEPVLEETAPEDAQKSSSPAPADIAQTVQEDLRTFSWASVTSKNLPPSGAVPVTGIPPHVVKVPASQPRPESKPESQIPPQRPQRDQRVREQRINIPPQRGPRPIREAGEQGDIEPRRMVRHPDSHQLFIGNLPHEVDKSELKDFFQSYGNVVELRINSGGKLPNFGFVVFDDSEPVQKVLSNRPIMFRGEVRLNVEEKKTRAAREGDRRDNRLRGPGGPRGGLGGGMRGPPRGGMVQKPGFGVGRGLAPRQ
UniProt Q13069: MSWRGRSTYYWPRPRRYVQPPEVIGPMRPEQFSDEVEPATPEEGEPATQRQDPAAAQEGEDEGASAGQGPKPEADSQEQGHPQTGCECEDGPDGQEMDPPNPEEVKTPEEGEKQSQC
UniProt Q9H3K2: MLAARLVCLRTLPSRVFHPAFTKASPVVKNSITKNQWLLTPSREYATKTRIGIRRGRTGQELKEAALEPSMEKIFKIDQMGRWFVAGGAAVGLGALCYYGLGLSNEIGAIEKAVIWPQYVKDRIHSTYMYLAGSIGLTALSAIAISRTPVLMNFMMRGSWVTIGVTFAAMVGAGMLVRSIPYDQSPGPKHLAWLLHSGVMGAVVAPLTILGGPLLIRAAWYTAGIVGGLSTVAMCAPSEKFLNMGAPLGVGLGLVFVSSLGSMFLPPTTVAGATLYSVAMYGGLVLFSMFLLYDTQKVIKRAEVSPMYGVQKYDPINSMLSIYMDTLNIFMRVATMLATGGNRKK
UniProt P57678: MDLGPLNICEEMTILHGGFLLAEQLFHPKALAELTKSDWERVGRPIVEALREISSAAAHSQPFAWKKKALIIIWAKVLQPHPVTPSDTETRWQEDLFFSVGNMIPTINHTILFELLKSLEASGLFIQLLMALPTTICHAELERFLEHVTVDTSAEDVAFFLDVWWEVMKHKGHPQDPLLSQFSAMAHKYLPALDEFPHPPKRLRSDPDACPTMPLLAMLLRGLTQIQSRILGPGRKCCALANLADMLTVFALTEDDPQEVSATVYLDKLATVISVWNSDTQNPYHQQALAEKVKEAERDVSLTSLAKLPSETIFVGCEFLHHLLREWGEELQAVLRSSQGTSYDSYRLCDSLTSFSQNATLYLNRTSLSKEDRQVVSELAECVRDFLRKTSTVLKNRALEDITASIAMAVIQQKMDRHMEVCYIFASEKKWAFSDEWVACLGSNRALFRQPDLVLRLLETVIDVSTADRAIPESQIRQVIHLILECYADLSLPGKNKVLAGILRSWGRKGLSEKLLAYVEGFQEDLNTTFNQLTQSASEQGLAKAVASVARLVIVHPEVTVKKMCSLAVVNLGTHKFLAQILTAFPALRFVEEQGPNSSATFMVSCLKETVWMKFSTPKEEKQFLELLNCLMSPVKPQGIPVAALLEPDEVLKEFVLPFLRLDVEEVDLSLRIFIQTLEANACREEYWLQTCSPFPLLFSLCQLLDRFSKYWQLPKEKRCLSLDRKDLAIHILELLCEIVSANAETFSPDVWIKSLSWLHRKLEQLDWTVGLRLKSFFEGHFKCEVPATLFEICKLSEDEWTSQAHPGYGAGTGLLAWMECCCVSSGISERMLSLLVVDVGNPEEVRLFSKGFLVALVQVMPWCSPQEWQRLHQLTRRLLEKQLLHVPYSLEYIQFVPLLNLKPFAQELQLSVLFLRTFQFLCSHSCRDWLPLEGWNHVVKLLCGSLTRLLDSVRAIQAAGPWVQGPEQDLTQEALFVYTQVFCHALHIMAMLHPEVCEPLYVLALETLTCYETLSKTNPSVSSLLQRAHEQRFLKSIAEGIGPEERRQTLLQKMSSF
UniProt P11413, whole entry, looked up: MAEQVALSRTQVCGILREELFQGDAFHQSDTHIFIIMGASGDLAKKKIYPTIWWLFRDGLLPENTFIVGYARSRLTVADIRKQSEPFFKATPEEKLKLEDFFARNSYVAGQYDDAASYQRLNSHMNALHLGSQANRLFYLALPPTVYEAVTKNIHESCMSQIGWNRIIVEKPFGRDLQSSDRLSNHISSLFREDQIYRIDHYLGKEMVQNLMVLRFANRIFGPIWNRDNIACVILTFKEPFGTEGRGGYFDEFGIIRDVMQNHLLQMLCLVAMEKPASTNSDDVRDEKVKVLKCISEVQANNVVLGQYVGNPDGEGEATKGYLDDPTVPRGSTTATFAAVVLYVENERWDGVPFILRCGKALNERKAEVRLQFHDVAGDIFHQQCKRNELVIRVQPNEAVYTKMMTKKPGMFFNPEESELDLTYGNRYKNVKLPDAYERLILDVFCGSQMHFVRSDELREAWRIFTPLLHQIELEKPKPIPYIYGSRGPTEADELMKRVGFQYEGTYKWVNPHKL

Key:
Assay in all cases: log2 fold change, soluble protein after heating vs DMSO (PISA); higher = thermal stabilisation; K562 cells, 10 uM, 30 min; active = over 0.2 and 3.5 SD of the protein, either way, in both replicates (recomputed)
[1] = compound: NC(=O)Nc1cc(-c2cccc(F)c2)sc1C(=O)N[C@H]1CCCNC1
Outline: (§1)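 For each measurement, 10 μM compound was applied for 30 min to K562 cells at 2×10^6 cells/mL. Aliquots were heated for 3 min across 48°C-58°C, pooled, and extracted in PBS with 0.5% NP-40 at 4°C; the supernatant after 21,000xg for 90 min was soluble protein. This was quantified by TMTpro 16plex LC-MS/MS with channel sums equalised, and thermal stability was reported relative to control samples from duplicates, on a log2 fold-change scale.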

[2] = compound: NC(=O)c1cnc(N[C@@H]2CCCC[C@@H]2N)nc1Nc1cccc(-n2nccn2)c1
Outline: as §1

[3] = compound: NC1(c2ccc(-c3nc4ccn5c(=O)[nH]nc5c4cc3-c3ccccc3)cc2)CCC1
Outline: as §1

[4] = compound: NCC(=O)Nc1ccc(-n2nc(C(F)(F)F)cc2-c2ccc3c(ccc4ccccc43)c2)cc1
Outline: as §1

entinostat = compound: Nc1ccccc1NC(=O)c1ccc(CNC(=O)OCc2cccnc2)cc1 [entinostat]
Outline: as §1

vorinostat = compound: O=C(CCCCCCC(=O)Nc1ccccc1)NO [vorinostat]
Outline: as §1

citarinostat = compound: O=C(CCCCCCNC(=O)c1cnc(N(c2ccccc2)c2ccccc2Cl)nc1)NO [citarinostat]
Outline: as §1

silmitasertib = compound: O=C(O)c1ccc2c(c1)nc(Nc1cccc(Cl)c1)c1ccncc12 [silmitasertib]
Outline: as §1

[5] = compound: O=C1NC(=O)C(c2cnc3ccccn23)=C1c1cn2c3c(cc(F)cc13)CN(C(=O)N1CCCCC1)CC2
Outline: as §1

[6] = compound: c1cc(OCCN2CCCCC2)cc(-c2n[nH]c3ccc(-c4nnc[nH]4)cc23)c1
Outline: as §1

entospletinib = compound: c1cn2cc(-c3ccc4cn[nH]c4c3)nc(Nc3ccc(N4CCOCC4)cc3)c2n1 [entospletinib]
Outline: as §1

| Target | log2 fold change [1] | log2 fold change [2] | log2 fold change [3] | log2 fold change [4] | log2 fold change (entinostat) | log2 fold change (vorinostat) | log2 fold change (citarinostat) | log2 fold change (silmitasertib) | log2 fold change [5] | log2 fold change [6] | log2 fold change (entospletinib) |
| --- | --- | --- | --- | --- | --- | --- | --- | --- | --- | --- | --- |
| GALNS (UniProt P34059) | inactive: 0.17 | inactive: -0.008 | inactive: 0.08 | inactive: 0.03 | inactive: 0.051 | inactive: 0.006 | inactive: -0.132 | inactive: -0.018 | inactive: -0.033 | inactive: -0.016 | inactive: 0.104 |
| FXR2 (UniProt P51116) | inactive: -0.115 | inactive: 0.034 | inactive: 0.298 | inactive: 0.077 | inactive: -0.041 | inactive: 0.013 | inactive: -0.02 | inactive: 0.233 | inactive: 0.287 | inactive: -0.048 | inactive: 0.072 |
| GCN1 (UniProt Q92616) | inactive: 0.202 | inactive: -0.001 | inactive: 0.237 | inactive: 0.095 | inactive: 0.092 | inactive: 0.015 | inactive: -0.046 | inactive: 0.282 | inactive: 0.451 | inactive: -0.193 | inactive: 0.255 |
| GCFC2 (UniProt P16383) | inactive: 0.07 | inactive: 0.071 | inactive: -0.045 | inactive: 0.099 | inactive: -0.002 | inactive: 0.136 | inactive: -0.004 | inactive: 0.04 | inactive: 0.017 | inactive: -0.016 | inactive: 0.047 |
| FUCA1 (UniProt P04066) | inactive: 0.028 | inactive: -0.028 | active: -0.519 | inactive: -0.03 | inactive: 0.014 | inactive: 0.015 | inactive: 0.096 | inactive: 0.019 | inactive: -0.043 | active: -0.372 | – |
| FURIN (UniProt P09958) | inactive: 0.039 | inactive: -0.02 | inactive: -0.103 | inactive: 0.14 | inactive: -0.026 | inactive: 0.001 | inactive: 0.104 | inactive: -0.018 | inactive: -0.074 | inactive: -0.036 | inactive: 0.02 |
| FUBP1 isoform 2 (UniProt Q96AE4) | inactive: -0.021 | inactive: 0.007 | inactive: 0.034 | inactive: 0 | inactive: -0.031 | inactive: -0.029 | inactive: -0.026 | inactive: -0.01 | inactive: -0.029 | inactive: 0.011 | inactive: 0.011 |
| GALNT7 (UniProt Q86SF2) | inactive: 0.028 | inactive: -0.068 | inactive: -0.091 | inactive: -0.002 | inactive: -0.009 | inactive: 0.022 | inactive: 0.045 | inactive: -0.042 | inactive: -0.028 | inactive: -0.094 | inactive: -0.039 |
| GGCX (UniProt P38435) | inactive: 0.091 | inactive: -0.002 | inactive: -0.044 | inactive: -0.069 | inactive: 0.283 | inactive: 0.112 | inactive: 0.019 | inactive: 0.184 | inactive: -0.072 | inactive: -0.119 | inactive: 0.01 |
| GGA1 isoform 6 (UniProt Q9UJY5) | inactive: 0.025 | inactive: -0.002 | inactive: -0.04 | inactive: -0.025 | inactive: -0.007 | inactive: 0.038 | inactive: 0.067 | inactive: 0.027 | inactive: 0.047 | inactive: -0.002 | inactive: -0.005 |
| GAN (UniProt Q9H2C0) | inactive: -0.025 | inactive: -0.1 | inactive: -0.06 | inactive: -0.025 | inactive: -0.01 | inactive: 0.051 | inactive: -0.012 | inactive: -0.011 | inactive: 0.014 | inactive: 0.031 | inactive: 0.025 |
| G3BP1 (UniProt Q13283) | inactive: -0.02 | inactive: 0.028 | inactive: 0.253 | inactive: 0.017 | inactive: -0.011 | inactive: 0.02 | inactive: -0.069 | inactive: 0.142 | inactive: 0.121 | inactive: -0.169 | inactive: 0.163 |
| G3BP2 (UniProt Q9UN86) | inactive: 0.067 | inactive: 0.065 | inactive: 0.296 | inactive: 0.002 | inactive: -0.016 | inactive: -0.002 | inactive: -0.123 | inactive: 0.152 | inactive: 0.288 | inactive: -0.222 | inactive: 0.137 |
| GAGE5 (UniProt Q13069) | inactive: -0.057 | inactive: 0.015 | inactive: 0.073 | inactive: -0.023 | inactive: 0.006 | inactive: -0.082 | inactive: 0.005 | inactive: -0.04 | inactive: -0.086 | inactive: -0.063 | inactive: 0.062 |
| FRY (UniProt Q5TBA9) | inactive: -0.061 | inactive: 0.072 | inactive: -0.189 | inactive: 0.1 | inactive: 0.072 | inactive: -0.175 | inactive: -0.232 | inactive: 0.079 | inactive: 0.074 | inactive: -0.244 | inactive: 0.049 |
| GCLC (UniProt P48506) | inactive: -0.013 | inactive: 0.005 | inactive: -0.152 | inactive: -0.061 | inactive: 0.02 | inactive: 0.064 | inactive: 0.035 | inactive: -0.024 | inactive: -0.041 | inactive: -0.025 | inactive: 0.007 |
| GALNT12 (UniProt Q8IXK2) | inactive: 0.026 | inactive: -0.127 | inactive: -0.133 | inactive: 0.044 | inactive: 0.021 | inactive: -0.023 | inactive: -0.111 | inactive: -0.007 | inactive: -0.101 | inactive: -0.134 | inactive: 0.032 |
| GAGE2A (UniProt Q6NT46) | inactive: 0.029 | inactive: 0.014 | inactive: -0.023 | inactive: 0.035 | inactive: 0.007 | inactive: 0 | inactive: -0.049 | inactive: 0.007 | inactive: 0.062 | inactive: 0.01 | inactive: 0 |
| GHITM (UniProt Q9H3K2) | inactive: 0.013 | inactive: -0.034 | inactive: -0.06 | inactive: 0.026 | inactive: -0.001 | inactive: 0.011 | inactive: 0.039 | inactive: 0.011 | inactive: 0.004 | inactive: -0.025 | inactive: 0.033 |
| GEMIN4 (UniProt P57678) | inactive: 0.183 | inactive: 0.229 | inactive: 0.249 | inactive: 0.139 | inactive: 0.086 | inactive: 0.087 | inactive: -0.124 | inactive: 0.181 | inactive: 0.256 | inactive: -0.398 | inactive: 0.137 |
| G6PD isoform 2 (UniProt P11413) | inactive: -0.021 | inactive: -0.006 | inactive: -0.084 | inactive: 0.01 | inactive: -0.003 | inactive: 0.027 | inactive: -0.011 | inactive: -0.055 | inactive: -0.036 | inactive: -0.028 | inactive: 0.057 |
| GFM1 (UniProt Q96RP9) | inactive: -0.004 | inactive: -0.046 | inactive: -0.138 | inactive: -0.106 | inactive: 0.056 | inactive: 0.051 | inactive: 0.046 | inactive: -0.024 | inactive: -0.128 | inactive: -0.032 | inactive: -0.022 |
| FTL (UniProt P02792) | inactive: 0.109 | inactive: -0.11 | inactive: 0.036 | inactive: 0.011 | inactive: -0.02 | inactive: 0 | inactive: 0.14 | inactive: 0.069 | inactive: 0.033 | inactive: -0.096 | inactive: -0.096 |
| FOXRED1 (UniProt Q96CU9) | inactive: 0.034 | inactive: 0 | inactive: -0.055 | inactive: 0.031 | inactive: -0.008 | inactive: 0.001 | inactive: 0.022 | inactive: -0.038 | inactive: 0.001 | inactive: 0.138 | inactive: 0.068 |
| FXR1 (UniProt P51114) | inactive: 0.03 | inactive: 0.015 | inactive: 0.273 | inactive: -0.085 | inactive: 0.025 | inactive: 0.087 | inactive: -0.033 | inactive: 0.145 | inactive: 0.291 | inactive: -0.127 | inactive: 0.199 |
| GART (UniProt C9JZG2) | inactive: -0.031 | inactive: -0.428 | inactive: -0.217 | inactive: -0.293 | inactive: 0.021 | inactive: -0.007 | inactive: 0.07 | inactive: 0.09 | inactive: -0.034 | inactive: 0.017 | inactive: -0.325 |
| FYCO1 isoform 4 (UniProt Q9BQS8) | inactive: 0.023 | inactive: -0.047 | inactive: -0.183 | inactive: -0.073 | inactive: 0 | inactive: 0.132 | inactive: 0.152 | inactive: 0.03 | inactive: 0.011 | inactive: -0.175 | inactive: -0.024 |

Record cards, from the list above. Values in the order: log2 fold change [1] | log2 fold change [2] | log2 fold change [3] | log2 fold change [4] | log2 fold change (entinostat) | log2 fold change (vorinostat) | log2 fold change (citarinostat) | log2 fold change (silmitasertib) | log2 fold change [5] | log2 fold change [6] | log2 fold change (entospletinib)
FRY (UniProt Q5TBA9) reads inactive: -0.061 | inactive: 0.072 | inactive: -0.189 | inactive: 0.1 | inactive: 0.072 | inactive: -0.175 | inactive: -0.232 | inactive: 0.079 | inactive: 0.074 | inactive: -0.244 | inactive: 0.049
GCN1 (UniProt Q92616) reads inactive: 0.202 | inactive: -0.001 | inactive: 0.237 | inactive: 0.095 | inactive: 0.092 | inactive: 0.015 | inactive: -0.046 | inactive: 0.282 | inactive: 0.451 | inactive: -0.193 | inactive: 0.255
